In patent US20200270627A1 (COMMONWEALTH SCIENTIFIC AND INDUSTRIAL RESEARCH ORGANISATION, published 2020) one finds binding data, which are given here for 1 molecule.

These are yes or no findings as the source states them, for the method shown. In cells and extracts the contact can be indirect. Some entries that bind do so weakly or less than the wild type. Tags and fused reporters may be left off the sequences shown.

This assay concerns the target T1, Sr33 1-160:CFP (Ae. tauschii (Triticum tauschii)).
T1 chain: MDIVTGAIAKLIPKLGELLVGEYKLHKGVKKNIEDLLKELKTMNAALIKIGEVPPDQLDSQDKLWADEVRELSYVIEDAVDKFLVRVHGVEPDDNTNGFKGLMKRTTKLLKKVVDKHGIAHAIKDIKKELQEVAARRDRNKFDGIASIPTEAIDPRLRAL
The assay is described as follows: co-immunoprecipitation with anti-GFP antibodies from N. benthamiana leaf cells. As to conditions: remark: other sources report otherwise.

B1: Sr33 1-160:HA (other)
chain: T1 chain
notes: also called full CC domain of Sr33 fused to a C-terminal HA tag; not shown: C-terminal HA tag (vector pBIN19-35S::GTW:3HA)
Turning to B1, the binding entry is reported as “binds”.
